Source: PubChem BioAssay AID1259308 (NCATS, 2017)
Shown is an unselected part of about 59,000 reagents. About 1,510 of all reagents (2.6%) count as active. 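Calls use total luciferase alone and ignore viability, so some active siRNAs may act by altering cell number.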 The numbers tell different reagents against one gene apart. Further read-outs or replicates are left out here.

- Test: 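Candidate targets for better recombinant protein yield in mammalian cells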 (primary screen)
- Cells: human HEK293 embryonic kidney cells stably expressing firefly luciferase (HEK-CMV-Luc2-Hygro)
- Reagent: single siRNA against human genes, 0.8 pmol siRNA per well
- Duration: 72 h
- Read-out: 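Luciferase light (ONE-Glo) measured on one replicate plate set and viability (CellTiter-Glo) on the other, scaled to a negative control siRNA, with robust z-scores and luciferase per cell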
- Scale: total luciferase, z-score and total luciferase, % of control: higher = more reporter protein produced
- Active means: 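An siRNA counts as active if its total luciferase robust z-score exceeds 3; genes with two or more such siRNAs out of three were retested with fresh siRNAs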
- Meaning of the calls: active = raised luciferase; inactive = no rise

What is on record for IYD #1?
total luciferase, z-score: 1.06; total luciferase, % of control: 103; outcome: inactive

What did the screen give for IYD #2?
total luciferase, z-score: -0.241; total luciferase, % of control: 77.1; outcome: inactive

What did the screen give for IYD #3?
total luciferase, z-score: -0.32; total luciferase, % of control: 75.5; outcome: inactive

With CHST1 #1, what does the deposit list?
total luciferase, z-score: -0.105; total luciferase, % of control: 79.8; outcome: inactive

With CHST1 #2, what does the deposit list?
total luciferase, z-score: 1.2; total luciferase, % of control: 106; outcome: inactive

With CHST1 #3, what was measured?
total luciferase, z-score: 1.7; total luciferase, % of control: 116; outcome: inactive

What is on record for TRIM26 #1?
total luciferase, z-score: 0.371; total luciferase, % of control: 89.3; outcome: inactive

With TRIM26 #2, what was measured?
total luciferase, z-score: 1.56; total luciferase, % of control: 113; outcome: inactive

What did the screen give for TRIM26 #3?
total luciferase, z-score: 1.46; total luciferase, % of control: 111; outcome: inactive

Which result is listed for CGN #1?
total luciferase, z-score: -0.357; total luciferase, % of control: 74.8; outcome: inactive

With CGN #2, what does the deposit list?
total luciferase, z-score: -0.525; total luciferase, % of control: 71.4; outcome: inactive

With CGN #3, what was measured?
total luciferase, z-score: 0.205; total luciferase, % of control: 86; outcome: inactive

For SELP #1, what was measured?
total luciferase, z-score: -0.324; total luciferase, % of control: 75.4; outcome: inactive

How did the screen score SELP #2?
total luciferase, z-score: -0.517; total luciferase, % of control: 71.6; outcome: inactive

What did the screen give for SELP #3?
total luciferase, z-score: 1.97; total luciferase, % of control: 121; outcome: inactive

Individual results from above:
CHST1 #2, total luciferase, % of control = 106
Result for SELP #3 in “total luciferase, z-score”: 1.97
Under “outcome”, IYD #2 reads inactive
Value for TRIM26 #2 under “total luciferase, % of control”: 113

Continued:
For WRNIP1 #1, what was measured?
total luciferase, z-score: 0.0797; total luciferase, % of control: 83.5; outcome: inactive

How did the screen score WRNIP1 #2?
total luciferase, z-score: -0.34; total luciferase, % of control: 75.1; outcome: inactive

For WRNIP1 #3, what does the deposit list?
total luciferase, z-score: -0.554; total luciferase, % of control: 70.9; outcome: inactive

What is on record for SERPINI2 #1?
total luciferase, z-score: 0.791; total luciferase, % of control: 97.6; outcome: inactive

How did the screen score SERPINI2 #2?
total luciferase, z-score: -0.118; total luciferase, % of control: 79.5; outcome: inactive

What did the screen give for SERPINI2 #3?
total luciferase, z-score: 0.474; total luciferase, % of control: 91.3; outcome: inactive

How did the screen score DLGAP1-AS5 #1?
total luciferase, z-score: 1.08; total luciferase, % of control: 103; outcome: inactive

For DLGAP1-AS5 #2, what does the deposit list?
total luciferase, z-score: 4.82; total luciferase, % of control: 178; outcome: active

With DLGAP1-AS5 #3, how do the results read?
total luciferase, z-score: -0.867; total luciferase, % of control: 64.6; outcome: inactive

What did the screen give for SLC39A11 #1?
total luciferase, z-score: -0.283; total luciferase, % of control: 76.3; outcome: inactive

What did the screen give for SLC39A11 #2?
total luciferase, z-score: -0.395; total luciferase, % of control: 74; outcome: inactive

With SLC39A11 #3, what was measured?
total luciferase, z-score: 0.277; total luciferase, % of control: 87.4; outcome: inactive

With MTHFD2L #1, what was measured?
total luciferase, z-score: -0.405; total luciferase, % of control: 73.8; outcome: inactive

What did the screen give for MTHFD2L #2?
total luciferase, z-score: -1.03; total luciferase, % of control: 61.4; outcome: inactive

With MTHFD2L #3, what does the deposit list?
total luciferase, z-score: 0.271; total luciferase, % of control: 87.3; outcome: inactive

How did the screen score DUSP3 #1?
total luciferase, z-score: 0.139; total luciferase, % of control: 84.7; outcome: inactive

Which result is listed for DUSP3 #2?
total luciferase, z-score: 0.104; total luciferase, % of control: 84; outcome: inactive

With DUSP3 #3, how do the results read?
total luciferase, z-score: -0.613; total luciferase, % of control: 69.7; outcome: inactive
